These are yes or no findings as the source states them, for the method shown. Some entries that bind do so weakly or less than the wild type.
How the values were obtained:
[1] = target: Arabidopsis OR protein (AtOR) (Arabidopsis) (UniProt Q9FKF4); experiment: two-hybrid; yeast split-ubiquitin system, β-galactosidase (lacZ reporter) activity by oNPG assay, relative to OD600, biological triplicates, cultures at 28°C
[2] = target: Arabidopsis OR protein (AtOR) (Arabidopsis) (UniProt Q9FKF4); experiment: two-hybrid; yeast split-ubiquitin system, growth test: Nub fusions (N-terminal) mated with Cub fusions (C-terminal); diploids spotted on fully selective medium (-LWAH) supplemented with 150 µM and 1 mM Met to repress the Cub fusion

- binding [1]: binds
- binding [2]: binds
B1: Arabidopsis OR protein (AtOR) (protein, UniProt Q9FKF4 56-307)
chain: ADKFASGFCIIEGPETVQDFAKMQLQEIQDNIRSRRNKIFLHMEEVRRLRIQQRIKNTELGIINEEQEHELPNFPSFIPFLPPLTAANLKVYYATCFSLIAGIILFGGLLAPTLELKLGIGGTSYADFIQSLHLPMQLSQVDPIVASFSGGAVGVISALMVVEVNNVKQQEHKRCKYCLGTGYLACARCSSTGALVLTEPVSAIAGGNHSLSPPKTERCSNCSGAGKVMCPTCLCTGMAMASEHDPRIDPFD
